Assay results: article PMC11252441

The chains behind the UniProt entries cited, without tags or fusion partners. Residues count along the entry.
UniProt P20491, residues 19-86: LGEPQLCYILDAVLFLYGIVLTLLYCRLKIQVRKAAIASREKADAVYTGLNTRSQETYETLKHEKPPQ

B1: ZW10 (protein, UniProt O54692 1-779)
chain: MASFVTEVLAHSGSLEKEDLGTRISRLTRRVEEIKGEVCNMISKKYSEFLPTMQSAQALVTQVDTLSNDIDQLKSRIETEVCRDLHISTVEFTNLKQQLERDSVVLTLLKQLQEFSSAIEEYNSALAEKKYIPAARHLEEAQECLKLLKSRKCFDLKMLKSLSMELTVQKQNILYHLGEDWQKLVVWKFPPAKDTSSLESCLQTELHLCTEQPEKEDMTPLPSISSVLLAFSILGELPTKLKSFGQMLLKYILKPLVTCPSLHAVIERQPSSVSICFESLTTDLEHPSPPEAFAKIRLVLEVLQKQLLDLPLDADLEIGKVPGIVLAEMLGEGIWEDLSECLIRNCLVYSIPTNSSKLQEYEEIIQSTEEFEKFLKEMRFLKGDTTDLLKYARNINSHFANKKCQDVIVAARNLMTSEIHNTVKIGPDCKEALPDLPSPDADHKLQVQTVCKAQFTDAGNLEPETSLDPQSFSLPTCRISEAVKKLMELAYQTLLEATTSSDQCAVQLFYSVRNIFHLFHDVVPTYHKENLRKLPQLAAIHHNNCMYIAHHLLTLGHQFRLRLAPILCDGTTTFVDLVPGFRRLGTECFLAQMQAQKGELLERLSSARSFANMDDEENYSAASKAVRQVLHQLRRLGIVWQDVLPVNIYCKAMGTLLNTAIAEMMSRITALEDISTEDGDRLYSLCKTVMDEGPQVFAPLSDENKNKKYQEEVPVYVSKWMPFKELMIMLQASLQEIGDRWADGKGPLATAFPSSEVKALIRALFQNTERRAAALAKIK
B2: TNPO1 (protein, UniProt Q8BFY9 1-898)
chain: MVWDRQTKMEYEWKPDEQGLQQILQLLKESQSPDTTIQRTVQQKLEQLNQYPDFNNYLIFVLTKLKSEDEPTRSLSGLILKNNVKAHFQNFPNGVTDFIKSECLNNIGDSSPLIRATVGILITTIASKGELQNWPDLLPKLCSLLDSEDYNTCEGAFGALQKICEDSAEILDSDVLDRPLNIMIPKFLQFFKHSSPKIRSHAVACVNQFIISRTQALMLHIDSFIENLFALAGDEEAEVRKNVCRALVMLLEVRMDRLLPHMHNIVEYMLQRTQDQDENVALEACEFWLTLAEQPICKDVLVRHLPKLIPVLVNGMKYSDIDIILLKGDVEEDETIPDSEQDIRPRFHRSRTVAQQHEEDGIEEEDDDDDEIDDDDTISDWNLRKCSAAALDVLANVYRDELLPHILPLLKELLFHHEWVVKESGILVLGAIAEGCMQGMIPYLPELIPHLIQCLSDKKALVRSITCWTLSRYAHWVVSQPPDTYLKPLMTELLKRILDSNKRVQEAACSAFATLEEEACTELVPYLAYILDTLVFAFSKYQHKNLLILYDAIGTLADSVGHHLNKPEYIQMLMPPLIQKWNMLKDEDKDLFPLLECLSSVATALQSGFLPYCEPVYQRCVNLVQKTLAQAMLNNAQPEQYEAPDKDFMIVALDLLSGLAEGLGGNIEQLVARSNILTLMYQCMQDKMPEVRQSSFALLGDLTKACFQHVKPCIADFMPILGTNLNPEFISVCNNATWAIGEISIQMGIEMQPYIPMVLHQLVEIINRPNTPKTLLENTAITIGRLGYVCPQEVAPMLQQFIRPWCTSLRNIRDNEEKDSAFRGICTMISVNPSGVIQDFIFFCDAVASWINPKDDLRDMFCKILHGFKNQVGDENWRRFSDQFPLPLKERLAAFYGV
B3: IPO11 (protein, UniProt Q8K2V6 1-975)
chain: MDLNSASSVVLQVLTQATSQDTAVLKPAEEQLKQWETQPGFYSVLLNIFTNHTLDINVRWLAVLYFKHGIDRYWRRVAPHALSEEEKSTLRAGLITNFNEPINQIATQIAVLIAKVARLDCPRQWPELIPTLVESVKVQDDLRQHRALLTFYHVTKTLASKRLAADRKLFYDLASGIYNFACSLWNHHTDTFLQHVSSGNEAAVLSSLERTLLSLKVLRKLTVNGFVEPHKNMEVMGFLHGIFERLKQFLECSRSIGTDNVCRDRLEKTIILFTKVLLDFLDQHPISFTPLIQRSLEFSVSYVFTEVGEGVTFERFIVQCMNLIKMIVKNYAYKPSKNFEDSSPETLEAHKIKMAFFTYPTLTEICRRLVSHYFLLTEEELTMWEEDPEGFTVEETGGDSWKYSLRPCTEVLFIDIFHEYNQTLTPVLLEMMQTLEGPTNVEDMNALLIKDAVYNAVGLAAFELFDSVDFDQWFKTQLLPELQVSHNRYKPLRRRVIWLIGQWISVKFKSDLRPMLYEAICNLLQDQDLVVRIETATTLKLTVDDFEFRTDQFLPYLETMFTLLFQLLQQVTECDTKMHVLHVLSCVIERVNVQIRPYVGCLVQYLPLLWKQSEEHNMLRCAILTTLIHLVQGLGADSKNLYPFLLPVIQLSTDVSQPPHVYLLEDGLELWLVTLENSPCVTPELLRIFQNMSPLLELSSENLRTCFKIINGYIFLSSTEFLQTYAAGLCQSFYELLPEITTEGQVQVLKVVENALKVNPVLGPQMFQRILPCVFRGVIEGERYPVVMSIYLAVMGRVLLQNTSFFSSLLNEMGHEFNQEMDQLLGNVIEMWVDRMDNITQPERKKLSALALLSLLPSDNSVIQDKFCGIINISVEALHDVMTEDPETRTYKDCMLMSQHEEPKVTEDEEPPTEQDKRKKMLALKDPVHTVSLQQFIYEKLKAQQEILGEQGFQSLMETVDTEIVTQLQEFLQGF
B4: XPO5 (protein, UniProt Q924C1 1-1204)
chain: MEMEQVNALCEELVKAVTVMMDPSSTQRYRLEALKFCEEFKEKCPICVPCGLKLAEKTQIAIVRHFGLQILEHVVKFRWNSMSRLEKVYLKNSVMELIANGTLRILEEENHIKDVLSRIVVEMIKREWPQHWPDMLMELDTLFRQGETQRELVMFILLRLAEDVVTFQTLPTQRRRDIQQTLTQNMERILNFLLNTLQENVNKYQQMKTDSSQEAEAQANCRVSVAALNTLAGYIDWVSLNHITAENCKLVETLCLLLNEQELQLGAAECLLIAVSRKGKLEDRKRLMILFGDVAMHYILSAAQTADGGGLVEKHYLFLKRLCQVLCALGNLLCALLALDANIQTPINFGMYLESFLAFTTHPSQFLRSSTHMTWGALFRHEVLSRDPALLAVIPKYLRASMTNLVKMGFPSKTDSPSCEYSRFDFDSDEDFNAFFNSSRAQHGEVVRCVCRLDPKTSFQMAAEWLKYQLSASIDTGPVNSCSTAGTGEGGFCSIFSPSYVQWEAMTFFLESVINQMFRTLDKEELPVSDGIELLQLVLNFEIKDPLVLSCVLTNVSALFPFVTYKPAFLPQVFSKLFSFVTFESVGESKAPRTRAVRNVRRHACSSINKMCRDYPDLVLPNFDMLYSHVKQLLSNELLLTQMEKCALMEALVLVSNQFKDYERQKLFLEELMAPVVNIWLSEEMCRALSDIDSFIAYVGADLKSCDPAVEDPCGLNRARMSFCVYSILGVMRRTSWPSDLEEAKAGGFVVGYTPSGNPIFRNPCTEQILRLLDNLLALVRTHNTLYTPEMLTKMAEPFTKALDIVESEKTAILGLPQPLLEFNDHPVYRTTLERMQRFFGILYENCYHILGKAGPSMQQDFYTVEDLASQLLGSAFVNLNNIPDFRLRSMLRVFVKPLVLFCPSEHYETLISPILGPLFTYLHMRLSQKWHVINQRSILCGEDEIAEDNPESQEMLEEQLVRMLTREAMDLIMACCVSKKTADHTAAPTADGDDEEMMATEVAPSSVVELTDLGKCLMKHEDVCTALLITAFNSLTWKDTLSCQRATTQLCWPLLKQVMSGTLLADAVTWLFTSVLKGLQMHGQHDGCMASLVHLAFQIYEALRPRYLEIRAVMEQIPEINKESLDQFDCKLLNPSLQKAADKRRKDHFKRLIAGCIGKPLGEQFRKEVHIKNLPWLFKKPKPMLETEVLDSEEGGLATIFEP
B5: HACD3 (protein, UniProt Q8K2C9 1-362)
chain: METQVLTPHVYWAQRHRELYLRVELSDVQNPAISITDNVLHFKAQGHGAKGDNVYEFHLEFLDLVKPEPAYRLTQRQVNITVQKKGSHWWERLTKQEKRPLFLAPDFDRWLDESDAEMELRAKEEERLNKLRLEREGSPETLTNLKKGYLFMYNLVQLLGFSWIFVNLTVRFFILGKESFYDTFHNVADMMYFCQMLALVETLNAAIGVTSTPVLPALIQFLGRNFILFLVFGTMEEMQNKAVVFFVFYSWSAIEIFRYPFYMLSCIDMDWKVLTWLRYTMWIPLYPLGCLSEAVAVIQSIPVFNESGRFSFTLPYPVKMKVRFSFFLQVYLVMLFLGLYINFRHLYKQRRRRYGQKKKKLH
B6: XPOT (protein, UniProt Q9CRT8 1-963)
chain: MDEQALLGLNPNADSDFRQRALAYFEQLKISPDAWQVCAEALAQKTYSDDHVKFFCFQVLEHQVKYKYSELSTAQQQLIRETLLSWLQAQMQNPQPEKTFIRNKAAQVFALLFVTEYLTKWPKFFFDILSVVDLNPRGVDLYLRILMAIDSELVDRDVVHTSEASGLENTLIKDTMREQCIPNLVESWYQILHNYQYTNSEVLCQCLEVVGAYVSWIDLSLIANDRFINMLLGHMSVEVLREEACDCLFEIVNKGMDPVDKMKLVESLCQVLQTAGFFSIDQEEDLDFVARFSKLVNGMGQSLIVSWTKLIKNGAVKNAQEALEAIETKVPLMLQLLVHEDDDISSNIIGFCYDYLHILKQLPVLSDQQKANVEAIMLAVMKKLTYDEEYNFENEGEDEAMFVEYRKQLKLLLDRLAQVSPELVLASVRRVFSATLQNWQTTRFMEVEVAVRLLYMLAEALPVSHGAHFSGDVSKASALQDMMRTLVTSGVSSYQHTSVTLEFFETVVRYEKFFTVEPQHIPCVLMAFLDHRGLWHSSAKVRSRTAYLFSRFVKSLNKQMNPYIEEILNRIQDLLALSPPENGYQSLLSSDDQLFIYETAGALIVNSEYPAENKQALMKDLLTPLMERFKVLLEKLMMAQDEERQASLADSLNHAVGFASRTSKAFSNKQTVKQCGCSQVYLDCLQTFLPALSCPLQKDVLRSGVRTFLHRMIICLEEEVLPFIPSASEHMLKDCEAKDLQEFIPLINQITAKFKMQVSPFLQQMFMPLLHAIFEVLLRPAEDNDQSAALEKQMLRRSYFAFLQTVTGSGMSEVIANQGAENVEQVLVTIIQGAVDYPDPIAQKTCFIILSKLVELWGGKDGPVGFADFVYKHIVPACFLAPLKQTFDLADAQTVLALSECAVTLKTIHLKRGPECVQYLQQEYLPSLQVAPEIIQEFCQALQQPDAKVFKNYLKVFFQRAKP

Target: FcεR1γ-FLAG (mouse) (UniProt P20491)
Assay: affinity purification with mass spectrometry; anti-FLAG antibodies and Protein A/G magnetic beads on lysate of GFP+ RAW 264.7 cells lentivirally expressing FcεR1γ-FLAG (empty virus as control); lysis 50 mM Tris-HCl pH 7.4, 150 mM NaCl, 1% Triton X-100, 5 mM EDTA; wash with 500 mM NaCl, 0.1% Triton X-100; 4 °C; Orbitrap Exploris 480, MaxQuant LFQ

binding, binds:
B1
B2
B3
B4
B5
B6

No constants are given. Whether binding was seen depends on the method and setting. Binding seen in cells or lysates may run through a third protein. Here binding means that the protein was enriched with, or labelled near, the bait; the list need not be complete.
